This assay can be described thus: qHTS Assay for Modulators of Lamin A Splicing. To be noted: HeLa LMNA splicing GFP/RFP minigene ratio, 48 h. The gist of the method: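 S3 HeLa cells stably expressing lamin A-EGFP splicing minigene plus DsRed2, 600 cells/well, 48 h compound exposure at 37C. Laser-scanning cytometry; analysed as GFP (500-530 nm)/RFP (575-640 nm) total intensity ratio; 0.5% DMSO vehicle.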
(In general: In qHTS, concentration-response curves come from the screen itself.)

Where [1] appears, read: measured here: GFP splicing reporter channel.
The mark [2] stands for this setting: measured here: RFP viability control channel.

Results on 33 compounds are retold here after PubChem BioAssay AID1487 (National Center for Advancing Translational Sciences (NCATS), 2009).

The term AC50 denotes the concentration giving half of the maximal activity seen.

Structures are written as SMILES. The list shows a part of the results. These are further read-outs of the screen, such as a control signal, another cell line or another target. No call is given for them. The list favours compounds with an active or inconclusive main result. Potencies come from curve fits of mixed quality, noted in brackets.

In the case of `O=C(c1ccc2c(=O)n(Cc3ccco3)c(=S)[nH]c2c1)N1CCN(Cc2ccccc2)CC1`, the AC50 reads like this: under setting [1], 6.31 µM [falling, partial curve, poor fit]; under setting [2], 6.31 µM [falling, partial curve, poor fit].

`CC(C)OCCCNC(=O)C(NC(=O)c1ccc(Cl)cc1)C(C)C` (stereo not drawn): the AC50 under setting [1] was 1.41 µM [rising, partial curve] and the AC50 under setting [2] was 0.00708 µM [rising, full curve, poor fit]. On to `CCSc1nnc(NC(=O)CSc2c(Cl)cccc2Cl)s1`, for which, under setting [2], the concentration at half-maximal activity (AC50) is 20 µM [rising, single point]. For the compound `C/C(=N/OC(=O)CC(C)C)c1cc(-c2ccc(Cl)cc2)no1`, the AC50 runs as follows: under setting [1], 0.251 µM [rising, full curve]; under setting [2], 15.8 µM [rising, partial curve, poor fit].

On to `Cc1ccccc1OCC(=O)N/N=C/c1ccc2c(c1)OCCO2`, for which, under setting [2], the half-maximal activity concentration (AC50) was 22.4 µM [rising, single point]. With `O=C(Nc1ccccc1)Nc1cc(OCC(F)(F)F)cc(OCC(F)(F)F)c1`, the AC50 reads like this: under setting [1], 17.8 µM [rising, partial curve, poor fit]; under setting [2], 22.4 µM [rising, single point]. Regarding `O=C1N(CC(=O)N2CCc3ccccc32)CCN1Cc1ccc(Cl)cc1`, the concentration at half-maximal activity (AC50) under setting [2] is 31.6 µM [rising, single point].

For the compound `O=C(NCc1ccccc1)c1cc(=O)nc2sc(-c3ccccc3)nn12`, the concentration at half-maximal activity (AC50) under setting [2] is 0.794 µM [falling, single point]. On to `Cc1sc2nc(-c3cccs3)nc(N3CCCN(C)CC3)c2c1C`, for which the AC50 is 25.1 µM [rising, single point] under setting [1] and 15.8 µM [rising, single point] under setting [2].

On to `CCCC(=O)Nc1cc(C(=O)O)ccc1S(=O)(=O)c1ccc(Cl)cc1`, for which the AC50 under setting [2] is 0.0112 µM [falling, partial curve, poor fit]. For the compound `O=C(COc1ccc(S(=O)(=O)NC2CCCCC2)cc1Cl)Nc1ccc2c(c1)OCO2`, the AC50 runs as follows: under setting [1], 15.8 µM [rising, single point]; under setting [2], 15.8 µM [rising, single point]. `O=C(N/N=C/c1ccc(O)cc1O)c1ccc(CN2C(=O)c3cccc4cccc2c34)cc1`: under setting [2], the AC50 is 35.5 µM [rising, single point]. Turning to `CC(=O)N=Nc1[nH]c(N)c2ccccc12`, under setting [1], the half-maximal activity concentration (AC50) is 0.00355 µM [falling, full curve, poor fit]. Consider `COc1cccc(CNc2ccccc2O)c1OCc1ccccc1F`, for which the AC50 reads like this: under setting [1], 0.0447 µM [falling, full curve, poor fit]; under setting [2], 0.0282 µM [falling, full curve, poor fit].

For the compound `Oc1c(C(Nc2ccccn2)c2cccnc2)cc(Cl)c2cccnc12` (stereo not drawn), the AC50 by setting is: under setting [1], 17.8 µM [rising, single point]; under setting [2], 15.8 µM [rising, partial curve]. Consider `COc1ccc(C(=O)N2CCN(c3nc4c(C)c(Cl)ccc4s3)CC2)c(OC)c1`, for which the half-maximal activity concentration (AC50) under setting [2] was 11.2 µM [rising, partial curve, poor fit]. On to `CN1CCN(S(=O)(=O)c2cccc(C(=O)Nc3nc(-c4ccccc4)cs3)c2)CC1`, for which the concentration at half-maximal activity (AC50) under setting [1] was 35.5 µM [rising, single point] and the AC50 under setting [2] was 35.5 µM [rising, single point]. Turning to `CCOc1ccc(NC(=O)CN(C)S(=O)(=O)c2ccc3[nH]c4c(c3c2)CCCC4)cc1`, the AC50 under setting [1] was 7.94 µM [falling, partial curve] and the concentration at half-maximal activity (AC50) under setting [2] is 0.891 µM [falling, full curve, poor fit]. Regarding `Cc1cccc(C2c3[nH]c4ccccc4c3CCN2C(=O)c2cc(-c3cccn3C)n[nH]2)n1` (stereo not drawn), the AC50 by setting is: under setting [1], 35.5 µM [rising, partial curve]; under setting [2], 35.5 µM [rising, partial curve]. In the case of `COc1cc(NC(=S)NCCC(c2ccccc2)c2ccccc2)cc(OC)c1`, the AC50 under setting [1] is 35.5 µM [rising, single point] and the half-maximal activity concentration (AC50) under setting [2] is 35.5 µM [rising, single point]. Take `O=C(c1cccc(F)c1)N1CCN(c2cc(N3CCCCC3)c(F)cc2[N+](=O)[O-])CC1`: the half-maximal activity concentration (AC50) under setting [2] is 14.1 µM [rising, single point].

For the compound `Cc1c(C(=O)Nc2ccc(-c3nnc4n3CCCCC4)cc2)oc2ccc(Br)cc12`, the AC50 was 7.94 µM [rising, partial curve, poor fit] under setting [1] and 11.2 µM [rising, partial curve] under setting [2].

For the compound `O=c1[nH]c2cc3c(cc2cc1CN(CCCO)C(=S)NCc1ccco1)OCO3`, under setting [2], the AC50 is 11.2 µM [falling, single point]. For `COc1cc(OC)c(OC)cc1/C=C/c1nc2ccccc2c(=O)n1-c1ccc(Br)c(C)c1`, the AC50 under setting [2] is 11.2 µM [rising, partial curve, poor fit]. On the same count and under the same terms, next, `CN(NC(=O)c1ccccc1)C1=NS(=O)(=O)c2ccccc21`: 0.0112 µM [falling, full curve, poor fit]. As to `Cc1ccccc1CN1CCN(CC(=O)NCc2ccc3c(c2)OCO3)C1=O`, the half-maximal activity concentration (AC50) under setting [1] was 10 µM [rising, partial curve, poor fit] and the half-maximal activity concentration (AC50) under setting [2] was 7.94 µM [rising, partial curve, poor fit]. With `C/C(=N\NC(=O)c1ccc([N+](=O)[O-])cc1)c1cc2ccccc2oc1=O`, the concentration at half-maximal activity (AC50) under setting [2] was 17.8 µM [rising, single point].

For the compound `O=C(Oc1ccc(-n2cnnn2)cc1)c1ccco1`, the half-maximal activity concentration (AC50) reads like this: under setting [1], 2.51 µM [falling, partial curve]; under setting [2], 3.16 µM [falling, partial curve]. `O=C(COC(=O)c1c2c(nc3ccccc13)CCCCC2)NCc1ccc2c(c1)OCO2`: under setting [2], the AC50 is 14.1 µM [rising, partial curve]. `CCCN1CCN(CCCNC(=O)Cn2c(-c3cccs3)cc3cc(Cl)ccc32)CC1`: the half-maximal activity concentration (AC50) under setting [1] was 35.5 µM [falling, single point]. For the compound `O=c1c(Cc2ccc(Cl)cc2)c(O)ccn1Cc1cccc(Cl)c1`, under setting [2], the AC50 is 35.5 µM [rising, single point]. For the compound `Cc1ccc2[nH]c3c(=O)n(CCc4cnc[nH]4)cnc3c2c1`, the AC50 under setting [1] was 0.0794 µM [rising, full curve, poor fit]. For `C[C@@H](Oc1ccc(Oc2cnc3ccc(Cl)cc3n2)cc1)C(=O)O`, the AC50 under setting [1] was 2.51 µM [falling, full curve].
